Compound in test [1]: ClCC(=O)N[C@@H]1CCCc2ccccc12
Kind of test: log2 mean competition ratio of IA-DTB cysteine labelling (DMSO/compound) (log2 ratio); higher = stronger cysteine engagement by compound. Conditions: treatment time: 4 h, cell line lysate: HEK293T. Here is the method: (§1)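 IA-DTB competitive cysteine chemoproteomics in HEK293T RIPA lysate. Lysates were treated with compound 29 or 30 at 50 or 200 µM for 4 h, then IA-DTB (500 µM, 1 h), trypsin-digested, NeutrAvidin-enriched and analysed by diaPASEF. Competition ratio = intensity DMSO / intensity compound (n=4 treated, n=64 DMSO); binding: mean log2 CR ≥ 1 and p ≤ 0.05 plus QC filters. Target is the cysteine site.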

Chains of the proteins cited; added tags and fusions are not shown. Lines headed by an entry give the natural chain unless they say otherwise; changes in a name come on top. Residues count along the entry.
UniProt Q96QR8: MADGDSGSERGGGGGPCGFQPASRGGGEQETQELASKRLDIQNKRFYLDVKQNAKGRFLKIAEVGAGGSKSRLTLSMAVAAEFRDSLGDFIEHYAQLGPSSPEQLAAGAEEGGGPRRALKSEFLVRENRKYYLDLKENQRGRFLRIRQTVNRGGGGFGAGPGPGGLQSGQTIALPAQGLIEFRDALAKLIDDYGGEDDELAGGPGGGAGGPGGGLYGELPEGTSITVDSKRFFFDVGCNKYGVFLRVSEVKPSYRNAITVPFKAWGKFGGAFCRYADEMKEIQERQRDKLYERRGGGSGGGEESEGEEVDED
UniProt Q9H5N1: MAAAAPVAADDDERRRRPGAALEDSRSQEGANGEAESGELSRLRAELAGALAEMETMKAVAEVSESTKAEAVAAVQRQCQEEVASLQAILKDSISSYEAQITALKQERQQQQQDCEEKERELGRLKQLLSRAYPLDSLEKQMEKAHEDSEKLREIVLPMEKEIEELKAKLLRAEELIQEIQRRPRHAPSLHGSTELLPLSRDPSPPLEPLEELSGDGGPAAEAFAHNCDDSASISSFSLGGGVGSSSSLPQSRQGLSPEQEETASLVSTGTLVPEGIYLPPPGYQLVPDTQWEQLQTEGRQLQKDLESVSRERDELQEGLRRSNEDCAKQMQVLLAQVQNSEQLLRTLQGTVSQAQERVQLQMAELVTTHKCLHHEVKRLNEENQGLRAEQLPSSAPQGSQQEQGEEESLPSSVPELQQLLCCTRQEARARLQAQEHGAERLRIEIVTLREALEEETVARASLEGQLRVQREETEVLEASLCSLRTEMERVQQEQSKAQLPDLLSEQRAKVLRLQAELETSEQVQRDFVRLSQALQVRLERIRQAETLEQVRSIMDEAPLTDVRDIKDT
UniProt Q9UI14, whole entry, looked up: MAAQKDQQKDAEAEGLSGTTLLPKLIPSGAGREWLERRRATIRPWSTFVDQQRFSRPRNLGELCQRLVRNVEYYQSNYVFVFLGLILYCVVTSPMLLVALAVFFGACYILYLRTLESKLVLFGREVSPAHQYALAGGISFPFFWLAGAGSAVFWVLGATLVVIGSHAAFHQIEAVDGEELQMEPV
UniProt Q15276: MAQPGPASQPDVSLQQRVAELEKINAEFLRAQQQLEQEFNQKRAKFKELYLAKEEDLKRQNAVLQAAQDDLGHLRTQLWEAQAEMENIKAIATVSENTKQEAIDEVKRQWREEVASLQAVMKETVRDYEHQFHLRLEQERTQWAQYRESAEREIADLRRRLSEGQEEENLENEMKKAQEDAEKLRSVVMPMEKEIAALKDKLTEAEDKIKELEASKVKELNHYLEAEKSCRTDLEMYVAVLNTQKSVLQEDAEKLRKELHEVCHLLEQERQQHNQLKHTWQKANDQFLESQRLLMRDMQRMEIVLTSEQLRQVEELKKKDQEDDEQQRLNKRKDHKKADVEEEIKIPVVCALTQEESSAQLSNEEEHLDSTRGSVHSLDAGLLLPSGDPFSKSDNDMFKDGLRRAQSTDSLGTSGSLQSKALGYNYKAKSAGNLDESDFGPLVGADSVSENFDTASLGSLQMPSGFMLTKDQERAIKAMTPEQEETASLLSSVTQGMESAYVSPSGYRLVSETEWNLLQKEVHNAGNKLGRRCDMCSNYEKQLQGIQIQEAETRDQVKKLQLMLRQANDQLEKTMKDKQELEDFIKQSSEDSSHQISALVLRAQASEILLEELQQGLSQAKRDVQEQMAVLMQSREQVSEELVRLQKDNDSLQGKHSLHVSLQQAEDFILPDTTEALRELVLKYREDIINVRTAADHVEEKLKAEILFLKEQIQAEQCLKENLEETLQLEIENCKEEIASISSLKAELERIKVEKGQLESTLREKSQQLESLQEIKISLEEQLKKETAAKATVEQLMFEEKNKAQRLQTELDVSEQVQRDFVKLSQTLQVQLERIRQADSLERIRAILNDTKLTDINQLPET
UniProt Q92698: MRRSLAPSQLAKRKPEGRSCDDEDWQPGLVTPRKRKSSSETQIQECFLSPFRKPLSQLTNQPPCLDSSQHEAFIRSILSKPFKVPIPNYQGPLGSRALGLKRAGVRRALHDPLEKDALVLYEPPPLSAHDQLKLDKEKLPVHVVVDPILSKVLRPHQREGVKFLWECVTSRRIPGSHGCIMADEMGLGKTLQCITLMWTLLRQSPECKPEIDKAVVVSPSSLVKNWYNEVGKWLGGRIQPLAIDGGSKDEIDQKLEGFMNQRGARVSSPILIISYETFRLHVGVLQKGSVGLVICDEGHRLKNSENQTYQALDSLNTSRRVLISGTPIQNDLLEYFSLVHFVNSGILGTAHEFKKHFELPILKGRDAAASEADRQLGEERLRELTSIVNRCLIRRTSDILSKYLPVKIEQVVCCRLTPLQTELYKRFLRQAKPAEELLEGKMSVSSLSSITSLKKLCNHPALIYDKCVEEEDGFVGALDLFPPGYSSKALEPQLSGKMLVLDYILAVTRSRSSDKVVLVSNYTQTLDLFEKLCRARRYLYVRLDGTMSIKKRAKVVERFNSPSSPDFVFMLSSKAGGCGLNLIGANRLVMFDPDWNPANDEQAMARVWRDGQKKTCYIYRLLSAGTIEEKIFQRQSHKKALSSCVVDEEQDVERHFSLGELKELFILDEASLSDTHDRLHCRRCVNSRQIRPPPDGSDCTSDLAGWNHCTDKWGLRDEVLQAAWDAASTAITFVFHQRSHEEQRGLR
UniProt P18031, 200-221: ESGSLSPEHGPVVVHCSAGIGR
UniProt O60671: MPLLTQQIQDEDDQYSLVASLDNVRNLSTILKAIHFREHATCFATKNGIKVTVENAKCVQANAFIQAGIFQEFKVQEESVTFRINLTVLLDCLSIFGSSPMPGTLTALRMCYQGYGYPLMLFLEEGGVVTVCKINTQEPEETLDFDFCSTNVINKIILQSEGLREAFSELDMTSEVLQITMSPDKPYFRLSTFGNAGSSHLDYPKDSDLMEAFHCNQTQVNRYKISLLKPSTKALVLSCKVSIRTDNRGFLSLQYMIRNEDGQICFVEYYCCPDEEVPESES
UniProt Q9Y520: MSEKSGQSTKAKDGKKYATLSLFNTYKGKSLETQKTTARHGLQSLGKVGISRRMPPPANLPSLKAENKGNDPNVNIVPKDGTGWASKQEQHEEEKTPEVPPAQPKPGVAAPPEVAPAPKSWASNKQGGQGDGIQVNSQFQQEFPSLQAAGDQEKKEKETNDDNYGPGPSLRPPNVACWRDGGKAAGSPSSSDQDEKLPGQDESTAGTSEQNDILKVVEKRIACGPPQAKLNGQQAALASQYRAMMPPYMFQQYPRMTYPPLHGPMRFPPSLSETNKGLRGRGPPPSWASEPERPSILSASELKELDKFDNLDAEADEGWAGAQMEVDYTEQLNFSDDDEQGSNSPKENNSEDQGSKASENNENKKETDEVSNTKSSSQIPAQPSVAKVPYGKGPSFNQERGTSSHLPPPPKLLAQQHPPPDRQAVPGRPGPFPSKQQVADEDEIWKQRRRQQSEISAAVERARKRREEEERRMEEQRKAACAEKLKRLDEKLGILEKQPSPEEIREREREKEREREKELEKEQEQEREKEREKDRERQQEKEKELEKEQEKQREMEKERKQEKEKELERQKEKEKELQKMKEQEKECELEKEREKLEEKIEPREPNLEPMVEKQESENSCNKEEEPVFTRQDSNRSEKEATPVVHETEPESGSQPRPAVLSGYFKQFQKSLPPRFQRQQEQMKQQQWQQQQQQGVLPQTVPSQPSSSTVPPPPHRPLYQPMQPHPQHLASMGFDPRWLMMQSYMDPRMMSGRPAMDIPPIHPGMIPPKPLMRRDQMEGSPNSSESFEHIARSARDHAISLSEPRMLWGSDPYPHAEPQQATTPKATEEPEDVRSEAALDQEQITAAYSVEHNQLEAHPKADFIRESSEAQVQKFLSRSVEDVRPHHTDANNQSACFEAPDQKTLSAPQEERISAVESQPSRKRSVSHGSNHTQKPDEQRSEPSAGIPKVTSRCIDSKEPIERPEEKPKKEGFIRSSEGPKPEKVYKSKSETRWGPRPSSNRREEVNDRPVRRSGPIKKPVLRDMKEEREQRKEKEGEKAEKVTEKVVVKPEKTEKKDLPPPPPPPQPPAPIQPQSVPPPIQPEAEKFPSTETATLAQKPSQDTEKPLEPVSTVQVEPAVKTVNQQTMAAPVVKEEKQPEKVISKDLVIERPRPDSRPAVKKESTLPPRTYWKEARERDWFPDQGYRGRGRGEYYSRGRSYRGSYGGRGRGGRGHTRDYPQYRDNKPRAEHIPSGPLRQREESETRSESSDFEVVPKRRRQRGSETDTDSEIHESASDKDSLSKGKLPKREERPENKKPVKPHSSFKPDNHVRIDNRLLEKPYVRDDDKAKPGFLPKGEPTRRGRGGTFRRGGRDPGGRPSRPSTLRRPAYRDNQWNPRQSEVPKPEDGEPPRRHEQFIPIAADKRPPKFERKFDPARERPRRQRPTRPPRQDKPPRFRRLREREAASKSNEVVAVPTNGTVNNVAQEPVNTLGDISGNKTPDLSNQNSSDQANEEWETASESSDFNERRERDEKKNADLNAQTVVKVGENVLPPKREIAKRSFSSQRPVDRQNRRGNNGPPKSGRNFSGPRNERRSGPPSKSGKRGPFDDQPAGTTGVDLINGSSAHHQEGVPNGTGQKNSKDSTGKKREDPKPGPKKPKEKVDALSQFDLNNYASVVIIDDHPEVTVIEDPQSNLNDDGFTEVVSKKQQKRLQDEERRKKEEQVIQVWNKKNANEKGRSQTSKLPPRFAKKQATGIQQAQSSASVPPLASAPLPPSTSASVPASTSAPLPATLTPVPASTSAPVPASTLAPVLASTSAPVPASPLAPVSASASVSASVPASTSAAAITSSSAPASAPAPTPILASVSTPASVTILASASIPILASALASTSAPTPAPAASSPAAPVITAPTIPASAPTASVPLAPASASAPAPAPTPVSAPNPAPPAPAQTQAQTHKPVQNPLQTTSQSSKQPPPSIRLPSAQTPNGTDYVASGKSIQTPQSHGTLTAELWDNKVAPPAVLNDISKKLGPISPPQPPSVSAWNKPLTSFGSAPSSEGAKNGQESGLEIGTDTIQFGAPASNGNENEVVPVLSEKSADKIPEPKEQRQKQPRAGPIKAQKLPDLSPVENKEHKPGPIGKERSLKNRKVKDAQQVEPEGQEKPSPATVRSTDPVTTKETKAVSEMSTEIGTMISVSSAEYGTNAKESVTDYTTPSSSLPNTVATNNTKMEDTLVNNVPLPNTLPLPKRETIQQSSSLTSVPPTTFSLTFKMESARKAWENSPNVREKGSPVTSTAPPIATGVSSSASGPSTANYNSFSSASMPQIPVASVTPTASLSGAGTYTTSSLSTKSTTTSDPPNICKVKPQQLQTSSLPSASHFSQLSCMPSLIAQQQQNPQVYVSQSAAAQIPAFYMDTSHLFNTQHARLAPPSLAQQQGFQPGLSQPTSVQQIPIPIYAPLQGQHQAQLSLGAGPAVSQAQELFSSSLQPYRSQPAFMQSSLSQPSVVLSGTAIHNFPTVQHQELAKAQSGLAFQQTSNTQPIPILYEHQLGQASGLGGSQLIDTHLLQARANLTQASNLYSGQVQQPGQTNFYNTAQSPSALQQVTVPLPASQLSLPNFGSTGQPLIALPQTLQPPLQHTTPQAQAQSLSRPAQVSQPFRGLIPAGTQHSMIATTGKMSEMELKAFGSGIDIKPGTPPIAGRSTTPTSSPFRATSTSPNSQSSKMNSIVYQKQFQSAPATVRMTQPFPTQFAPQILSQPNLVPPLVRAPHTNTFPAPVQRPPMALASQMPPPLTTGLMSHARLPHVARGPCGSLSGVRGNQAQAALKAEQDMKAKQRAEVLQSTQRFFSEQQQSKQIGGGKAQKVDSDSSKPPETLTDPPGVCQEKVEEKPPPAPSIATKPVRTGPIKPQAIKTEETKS
UniProt P43686: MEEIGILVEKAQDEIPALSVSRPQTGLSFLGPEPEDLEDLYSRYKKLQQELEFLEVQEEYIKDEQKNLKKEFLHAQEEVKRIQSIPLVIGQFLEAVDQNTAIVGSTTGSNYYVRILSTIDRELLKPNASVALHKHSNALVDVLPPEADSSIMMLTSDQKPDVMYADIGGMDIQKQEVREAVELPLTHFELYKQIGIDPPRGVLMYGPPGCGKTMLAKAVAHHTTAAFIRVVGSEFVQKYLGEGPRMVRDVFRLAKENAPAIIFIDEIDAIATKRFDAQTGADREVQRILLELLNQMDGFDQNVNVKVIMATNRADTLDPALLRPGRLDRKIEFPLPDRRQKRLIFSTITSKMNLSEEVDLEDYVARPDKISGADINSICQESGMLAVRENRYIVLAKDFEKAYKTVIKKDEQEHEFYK
UniProt P61019: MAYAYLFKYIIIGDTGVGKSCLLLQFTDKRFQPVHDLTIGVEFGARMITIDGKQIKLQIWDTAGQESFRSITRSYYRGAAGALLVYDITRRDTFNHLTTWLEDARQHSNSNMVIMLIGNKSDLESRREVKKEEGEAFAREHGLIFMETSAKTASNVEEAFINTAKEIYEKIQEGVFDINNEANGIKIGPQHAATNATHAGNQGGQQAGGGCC

Compound in test [2]: ClCC(=O)N[C@H]1CCCc2ccccc12
The test is described as above. Conditions: treatment time: 4 h, cell line lysate: HEK293T. Here is the method:
as §1

The other results are listed elsewhere or left out. The data scatter; read single values as rough.

For PURB C17 (UniProt Q96QR8), the “log2 mean competition ratio” value in test [1] (50 µM) is 0.0252; in test [1] (200 µM) it was -0.191; in test [2] (50 µM), -0.0564; in test [2] (200 µM), -0.0269.

As for RABGAP1L C777 (UniProt Q5R372), the “log2 mean competition ratio” value was 0.289 in test [1] (50 µM), 0.0158 in test [1] (200 µM), -0.18 in test [2] (50 µM) and 0.0968 in test [2] (200 µM).

For the target RABEP2 C482 (UniProt Q9H5N1), the “log2 mean competition ratio” value in test [1] (50 µM) is 0.061; in test [1] (200 µM), 0.00266; in test [2] (50 µM), 0.0294; in test [2] (200 µM) it was -0.133.

In the case of RABAC1 C64 (UniProt Q9UI14), the “log2 mean competition ratio” value in test [1] (50 µM) was -0.159; in test [1] (200 µM) it was -0.228; in test [2] (50 µM), -0.153; in test [2] (200 µM) it was -0.246.

On to PRR14L C1503 (UniProt Q5THK1), for which the “log2 mean competition ratio” value in test [1] (50 µM) is 0.121; in test [1] (200 µM) it was 0.0271; in test [2] (50 µM), -0.232; in test [2] (200 µM) it was 0.0447.

For RABEP1 C718 (UniProt Q15276), the “log2 mean competition ratio” value in test [1] (50 µM) was 0.121; in test [1] (200 µM), -0.186; in test [2] (50 µM), 0.19; in test [2] (200 µM) it was -0.237.

Turning to PWWP3A C372, the “log2 mean competition ratio” value in test [1] (50 µM) was 0.231; in test [1] (200 µM), -0.171; in test [2] (50 µM), -0.018; in test [2] (200 µM), -0.315.

In the case of PRR14L C541 (UniProt Q5THK1), the “log2 mean competition ratio” value is 0.0117 in test [1] (50 µM), -0.0334 in test [1] (200 µM), 0.34 in test [2] (50 µM) and 0.126 in test [2] (200 µM).

As to QARS1 C298, A0A0U1RR66, the “log2 mean competition ratio” value in test [1] (50 µM) is 0.36; in test [1] (200 µM), -0.0739; in test [2] (50 µM) it was 0.112; in test [2] (200 µM) it was -0.281.

For the target RABGAP1L C139 (UniProt Q5R372), the “log2 mean competition ratio” value in test [1] (50 µM) is 0.219; in test [1] (200 µM), -0.169; in test [2] (50 µM), 0.573; in test [2] (200 µM), -0.114.

Consider RAD50 C48, for which the “log2 mean competition ratio” value is -0.134 in test [1] (50 µM), -0.109 in test [1] (200 µM), 0.185 in test [2] (50 µM) and 0.0501 in test [2] (200 µM).

With PXN C108 (UniProt P49023), the “log2 mean competition ratio” value worked out at 0.108 in test [1] (50 µM), 0.123 in test [1] (200 µM), 0.271 in test [2] (50 µM) and 0.0889 in test [2] (200 µM).

For RAD54L C207 (UniProt Q92698), the “log2 mean competition ratio” value in test [1] (50 µM) is -0.366; in test [1] (200 µM) it was -0.0438; in test [2] (50 µM), -0.138; in test [2] (200 µM), -0.143.

With QSER1 C1709, the “log2 mean competition ratio” value in test [1] (50 µM) was -0.209; in test [1] (200 µM), 0.245; in test [2] (50 µM) it was -0.317; in test [2] (200 µM), 0.163.

RAD50 C53: the “log2 mean competition ratio” value in test [1] (200 µM) is -0.266.

As for PTPN1 C215 (UniProt P18031), the “log2 mean competition ratio” value in test [1] (50 µM) is 0.0524; in test [1] (200 µM), 0.176; in test [2] (50 µM), 0.0877; in test [2] (200 µM), -0.0238.

As to PSMD8 C173, the “log2 mean competition ratio” value is 0.183 in test [1] (50 µM), -0.563 in test [1] (200 µM), -0.134 in test [2] (50 µM) and -0.542 in test [2] (200 µM).

As for PURB C273 (UniProt Q96QR8), the “log2 mean competition ratio” value in test [1] (50 µM) is 0.109; in test [1] (200 µM), 0.267; in test [2] (50 µM), -0.104; in test [2] (200 µM), 0.264.

Consider RAD1 C42 (UniProt O60671), for which the “log2 mean competition ratio” value in test [1] (50 µM) was 0.0503; in test [1] (200 µM), -0.342; in test [2] (50 µM), 0.143; in test [2] (200 µM), -0.363.

PRRC2C C2788 (UniProt Q9Y520): the “log2 mean competition ratio” value in test [1] (50 µM) was -0.0203; in test [1] (200 µM), 0.0633; in test [2] (50 µM), 0.108; in test [2] (200 µM) it was 0.229.

Turning to PSMC4 C210 (UniProt P43686), the “log2 mean competition ratio” value in test [1] (50 µM) came to 0.693; in test [1] (200 µM), 0.299; in test [2] (50 µM), 0.738; in test [2] (200 µM), 0.203.

Consider PSMB7 C74 (UniProt Q99436), for which the “log2 mean competition ratio” value in test [1] (50 µM) worked out at 0.024; in test [1] (200 µM), 0.0905; in test [2] (50 µM), 0.0385; in test [2] (200 µM), 0.00502.

For the target RAD1 C215 (UniProt O60671), the “log2 mean competition ratio” value in test [1] (50 µM) was -0.0202; in test [1] (200 µM), 0.383; in test [2] (50 µM), -0.183; in test [2] (200 µM) it was -0.145.

As for PSME4 C958 (UniProt Q14997), the “log2 mean competition ratio” value is -0.251 in test [1] (50 µM), 0.101 in test [1] (200 µM), -0.349 in test [2] (50 µM) and -0.0759 in test [2] (200 µM).

With RAB2A C21 (UniProt P61019), the “log2 mean competition ratio” value in test [1] (50 µM) was 0.326; in test [1] (200 µM) it was 0.237; in test [2] (50 µM), -0.0647; in test [2] (200 µM), 0.0464.

The record behind these values is the supplement of paper PMC11732987, “Enantioselective OTUD7B fragment discovery through chemoproteomics screening and high-throughput optimisation” (Communications Chemistry, 2025).
